The list shows a part of the results. The main result of the screen is listed elsewhere. These columns were measured beside it and carry no call. Most of these compounds were active or inconclusive in the main read-out, so they are no random draw. Words in brackets tell the shape of the fitted curve; partial curves, single points and poor fits give uncertain potencies.

The experiment is described as follows: qHTS Assay for Lipid Storage Modulators in Drosophila S3 Cells.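 For cell number change: cells counted by Cell Tracker Red CMTPX staining in the red channel.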 The settings on record: BODIPY lipid droplet fluorescence, 18-24 h; for cell number change: measured here: cell count max response, cells fed with added oleic acid. The gist of the method:
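Drosophila S3 cells got compounds at several concentrations plus oleic acid (400 uM solution). Laser-scanning cytometry with 488 nm excitation read lipid droplets at 500-530 nm and cells at 575-640 nm. Percent activity was relative to 20 uM Triacsin C.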
On the technique in general: qHTS replaces the single test concentration by a dilution series.

[1] abbreviates: measured here: lipid fluorescence (Fed channel) AC50, cells fed with added oleic acid.
Where [2] appears, read: measured here: cell number channel AC50, cells fed with added oleic acid.

Broadly, the AC50 is the concentration giving half of the maximal activity seen. As to `CCOC(=O)c1cnc2c(C)c(Cl)ccc2c1NCCCN1CCOCC1`, the cell number change came out at 3.28%. Besides, under setting [1], the AC50 was 29.1 µM [falling, single point].
On to `O=C(Nc1ccn(Cc2ccccc2F)n1)c1ccc(COc2ccccc2Cl)cc1`, for which the cell number change is -15%. In addition, the AC50 under setting [1] is 6.51 µM [rising, single point].
In the case of `CC1CCCC(C)N1C(=O)Cn1c(SCC(=O)NCc2ccc3c(c2)OCO3)nc2ccccc21` (stereo unspecified), the cell number change stood at 18.4%. Further, under setting [2], the AC50 is 0.461 µM [rising, partial curve]. Moreover, the AC50 under setting [1] was 0.58 µM [rising, partial curve].
Turning to `CCOP(=O)(OCC)C(Nc1cccc(C(F)(F)F)c1)c1ccc(F)cc1` (stereo unspecified), the cell number change came out at 18.1%. The AC50 under setting [1] is 20.6 µM [rising, partial curve].
As to `COc1ccc(-n2c(Cn3nnc4ccccc43)nnc2SCC(=O)O)cc1`, the cell number change was 2.44%. Moreover, the concentration at half-maximal activity (AC50) under setting [1] was 0.116 µM [falling, full curve, poor fit].
For `CCc1ccc(C2C(C#N)=C(N)SC(N)=C2C#N)s1`, the cell number change is -23%. Besides, the AC50 under setting [1] was 10.3 µM [falling, single point].
As to `NC(=O)c1ncc(C(F)(F)F)cc1Oc1cccc(F)c1`, the cell number change is -40%. Moreover, under setting [2], the AC50 is 25.9 µM [falling, single point]. The AC50 under setting [1] was 0.0058 µM [falling, full curve].
In the case of `O=C(CCC(=O)Nc1ccc(F)cc1)N/N=C/c1cccc(Br)c1`, the AC50 is 0.411 µM [rising, full curve] under setting [2] and 29.1 µM [falling, single point] under setting [1].
`O=C(O)c1ccc(CSc2nc(-c3ccc(Cl)cc3)cc(C(F)(F)F)n2)cc1`: the cell number change was -20.2%. The half-maximal activity concentration (AC50) under setting [1] is 29.1 µM [falling, single point].
Turning to `CC(=O)N/C(=C\c1ccccc1)C(=O)OC(C)C(=O)Nc1ccccc1F` (stereo unspecified), the cell number change was 2.98%. Also, the AC50 under setting [1] is 7.31 µM [rising, partial curve, poor fit].
With `N#C/C(=C\c1cccnc1)C(=O)Nc1ccc(S(N)(=O)=O)cc1`, the AC50 under setting [1] is 29.1 µM [falling, single point].
As to `Cn1c(COc2ccc3ccccc3c2)nnc1SCC(N)=O`, the cell number change was determined as 14.5%.
As to `Nc1ccc(C(=O)O)cc1[N+](=O)[O-]`, the AC50 by setting is: under setting [2], 3.66 µM [falling, single point]; under setting [1], 0.00517 µM [falling, full curve, poor fit].
For `CCCCOC(=O)C1=C(C)Nc2ncnn2C1c1cc(OC)c(OC)cc1OC` (stereo unspecified), the cell number change is -34.5%. Also, under setting [2], the AC50 is 0.146 µM [falling, full curve, poor fit]. In addition, under setting [1], the AC50 is 0.116 µM [falling, full curve, poor fit].
In the case of `COc1ccc(NC(=O)CSc2nnc3ccc(-c4ccncc4)nn23)cc1`, the cell number change turned out to be 50.1%. Also, the AC50 under setting [2] was 3.66 µM [rising, partial curve]. Besides, under setting [1], the half-maximal activity concentration (AC50) is 10.3 µM [rising, partial curve].
In the case of `Cc1cc(C)c2nc(N(CCN(C)C)C(=O)/C=C/c3cccs3)sc2c1`, the cell number change stood at 5.31%. Under setting [1], the concentration at half-maximal activity (AC50) was 29.1 µM [falling, single point].
As for `COc1cc(-c2noc(C3CCCN(S(=O)(=O)c4cccc(Cl)c4)C3)n2)cc(OC)c1OC` (stereo unspecified), the cell number change was -31.1%. Further, the half-maximal activity concentration (AC50) under setting [2] was 16.4 µM [falling, single point].
On to `O=C(NCCc1c[nH]c2ccccc12)C1CCN(Cc2ccc(Br)cc2)CC1`, for which the cell number change was determined as 14%. Moreover, the AC50 under setting [1] is 29.1 µM [rising, single point].
`c1ccc(-c2cnc(-c3cccnc3)o2)cc1`: the cell number change was -30.9%. In addition, the AC50 under setting [2] was 18.4 µM [falling, partial curve].
Consider `COCCNC(=O)/C(C#N)=C/c1ccc(-c2ccc(S(=O)(=O)N3CCOCC3)cc2)o1`, for which the cell number change was 13.4%. In addition, under setting [1], the AC50 was 6.51 µM [rising, partial curve, poor fit].
Regarding `COc1ccc(/C=C2\SC(=S)N(CC(=O)Nc3nnc(C)s3)C2=O)cc1`, the cell number change came out at 12.8%. Under setting [1], the AC50 was 0.651 µM [rising, full curve, poor fit].
On to `O=C(Cc1ccccc1)NNS(=O)(=O)c1ccc(F)cc1`, for which the cell number change turned out to be 1.01%. Under setting [1], the AC50 was 11.6 µM [rising, partial curve, poor fit].
Turning to `CCCOc1ccc(C(=O)NC(=S)NCc2cccnc2)cc1`, the cell number change was determined as 11.1%. Moreover, the AC50 under setting [2] is 2.31 µM [rising, single point]. In addition, the AC50 under setting [1] is 20.6 µM [falling, single point].
`Cc1n[nH]c(=O)c2c(NC(=O)CSc3ncccn3)oc(C)c12`: the cell number change is 43.8%. In addition, the AC50 under setting [2] is 0.366 µM [rising, full curve]. For the same molecule, the AC50 under setting [1] was 0.58 µM [rising, single point].
Turning to `COc1ccc(-c2noc(CN(C(=O)c3c(-c4ccccc4Cl)noc3C)C(C)C)n2)cc1`, the cell number change is -18.8%.
With `COc1ccccc1OCc1nc2ccccc2n1C`, the cell number change is -19.9%. For the same molecule, the AC50 under setting [2] is 6.51 µM [falling, single point].
As to `O=C(CNc1ccccc1Cl)Nc1cc(S(=O)(=O)N2CCOCC2)ccc1Cl`, the cell number change came to 34.9%. Under setting [2], the AC50 is 18.4 µM [rising, single point]. For the same molecule, the AC50 under setting [1] was 18.4 µM [rising, single point].
As for `Cc1csc(CNc2ncnc3ccc(-c4ccc5c(c4)OCO5)cc23)c1`, the cell number change is -12.2%. Also, the AC50 under setting [1] was 13 µM [falling, single point].
On to `CN1CCN(C(=S)Nc2ccc(S(N)(=O)=O)cc2)CC1`, for which the cell number change is -6.19%. Further, the AC50 under setting [2] was 0.517 µM [rising, partial curve]. For the same molecule, the half-maximal activity concentration (AC50) under setting [1] was 0.651 µM [rising, single point].
For `O=C(c1cc(-c2ccncc2)nc2ccccc12)N1CCN(c2ccccc2O)CC1`, the cell number change is -22%.
Consider `CCc1ccccc1N(C(=O)CCC(=O)Nc1cc(C)on1)C(C(=O)NC1CCCC1)c1ccco1` (stereo unspecified), for which the cell number change is 20.1%. Besides, under setting [2], the half-maximal activity concentration (AC50) was 1.64 µM [rising, partial curve, poor fit]. Also, the AC50 under setting [1] was 2.06 µM [rising, partial curve].
As to `O=C(Cc1ccccc1)Nc1ccc(Cl)cn1`, the cell number change was -11.3%. For the same molecule, under setting [1], the AC50 was 6.51 µM [falling, single point].
Regarding `COc1cc(NC(=O)CN2C(=O)C(=O)N(C3CCCC3)C2=O)cc(OC)c1`, the cell number change was found to be 38.7%. Further, the AC50 under setting [2] was 9.2 µM [rising, partial curve]. Also, the concentration at half-maximal activity (AC50) under setting [1] was 6.51 µM [rising, partial curve].
Turning to `O=C(COC(=O)c1ccc(S(=O)(=O)C(F)F)cc1)NC(=O)NC1CCCCC1`, the cell number change was -7.58%.
In the case of `COc1cc(/C=C2/SC(=S)N(CC3CCCO3)C2=O)ccc1O` (stereo unspecified), the cell number change was -90.5%. Further, the half-maximal activity concentration (AC50) under setting [2] is 29.1 µM [falling, single point]. Besides, under setting [1], the AC50 was 29.1 µM [falling, single point].

(Values after PubChem BioAssay AID2685 (National Center for Advancing Translational Sciences (NCATS), 2010).)
